# Measurements taken from PubChem BioAssay AID588497 (NMMLSC, 2011).
# Several values for one entry are separate records, joined by “and”; a condition that tells them apart may be missing. Equal entries are not always repeated. The campaign covered roughly 360,000 compounds. About 780 (0.22%) were called active. The shares of active, inactive and inconclusive entries below differ from those in the screen. No stated cut-off is given here; in the data, active means inhibition above about 35% (passing the limit was not always enough); inconclusive means no clear call, values can overlap the other calls.
# Tested on: Botulinum neurotoxin type F light chain protease (Clostridium botulinum)
# Assay: BoNT/F light chain protease inhibitors, primary screen, biochemical, flow cytometry, MLPCN library (AID 588497); further: plate controls were buffer without enzyme for full effect and enzyme alone for no effect
# Settings: Multiplex microsphere protease cleavage assay, at 10 µM, hits give high values
row,SMILES,inhibition
1,COc1ccc2nc(/C=N/NC(=O)[C@@H]3CCCN3C(=O)OC(C)(C)C)ccc2c1,inconclusive: 19.2%
2,O=c1[nH]c(=S)n(Cc2ccco2)c(O)c1C=NCc1cccs1,inactive: -1.8%
3,N#CCN1CCC2(O)CCCCC2C1c1ccc2c(c1)OCO2 (stereo unspecified),inconclusive: -23.4%
4,c1ccc(-n2cnc3ccccc32)nc1,inconclusive: -18.8%
5,Cc1ccc(/C=C/C(=O)N2CCN(c3cccc(C(F)(F)F)c3)CC2)cc1,inactive: -1.4%
6,Cc1cc(=O)[nH]c(NCc2ccc(Cl)cc2)n1,inconclusive: 51.5%
7,O=C(CC(Cc1ccccc1)c1ccco1)NCc1ccco1 (stereo unspecified),inconclusive: 15.5%
8,COc1ccc(CNC(=O)c2cc3cc(OC)ccc3oc2=O)cc1,inconclusive: 23.7%
9,CC(C)(C)c1cc(C(=O)O)n(Cc2ccc(Cl)cc2Cl)n1,inconclusive: -30%
10,CCCCN(C)CCCNC(=O)c1cc(-c2cccs2)nc2ccccc12,inconclusive: 23.2%
11,Cc1ccc2cccc(OCCCOc3ccccc3F)c2n1,inconclusive: 0.5%
12,CC(/C=C/c1ccccc1)=N\NC(=O)Cn1cncn1,inconclusive: -9.8%
13,Cc1ccc(N=Cc2c(O)n(C)c(=O)n(C)c2=O)cc1,inconclusive: -3.3%
14,N#C/C(=C(O)\C=C\c1ccccc1)c1nc2ccccc2[nH]1,inconclusive: 29.1%
15,O=C1C(Cc2ccccc2)Nc2ncnc(N3CCCCC3)c2N1Cc1ccc(Br)cc1 (stereo unspecified),inactive: -1.8% and inactive: -7.6%
16,N#Cc1c(/N=C/c2ccc(-c3ccc(C(=O)O)c(Cl)c3)o2)sc2c1CCCC2,inconclusive: -7.2%
17,CC(C)c1ccccc1NC(=O)C1C2C=CC(C2)C1C(=O)O (stereo unspecified),inconclusive: -23.4%
18,C=CCc1ccc(OCCCNCc2ccccc2)c(OC)c1,inconclusive: -7.4%
19,Cc1cc(C)nc(NC(=O)/C=C/c2ccc(Cl)cc2)n1,inconclusive: -9.9%
20,CC1CCN(CC(=O)Nc2ccc(S(=O)(=O)N3CCCCC3)cc2)CC1,inconclusive: 18.7%
21,O=C(Nc1c[nH]c(=O)[nH]c1=O)c1ccccc1Cl,inconclusive: -4.2%
22,COC(=O)c1cc(CNC(=O)Cc2ccsc2)ccc1OC,inactive: -5.4%
23,Oc1c(Br)cc(/C=N/n2c(-c3ccccc3)n[nH]c2=S)c(O)c1Br,inconclusive: 8.9%

# Entries listed so far that contain fluorine:
row,SMILES,inhibition
5,Cc1ccc(/C=C/C(=O)N2CCN(c3cccc(C(F)(F)F)c3)CC2)cc1,inactive: -1.4%
11,Cc1ccc2cccc(OCCCOc3ccccc3F)c2n1,inconclusive: 0.5%

# Following part:

row,SMILES,inhibition
1,O=C(CCC(=O)c1ccc(Oc2ccccc2)cc1)Nc1ccc(C(=O)O)cc1,inconclusive: -12%
2,CC(CCc1ccc(O)cc1)NC1c2ccccc2-c2ccccc21 (stereo unspecified),inconclusive: -22%
3,CN(C)c1ccc(/C=[N+](\[O-])C2SC(=S)N(C)C2(C)C)cc1 (stereo unspecified),inactive: 9.1%
4,COC(=O)c1nc[nH]c1C(=O)OC,inconclusive: -7.7%
5,C[C@@H]1COc2cc(N3CC[C@H](O)C3)ccc2S(=O)(=O)N1,inactive: -8%
6,CN1CCN(S(=O)(=O)c2ccc(NC(=O)c3ccc(F)cc3Cl)cc2)CC1,active: 47.4%
7,Cc1ccccc1NC(=O)Cc1nc(COC(=O)Cc2c(F)cccc2Cl)cs1,inactive: -5.3%
8,CCOC(=O)CC1(c2ccc(OC)c(OC)c2)C(=O)c2ccccc2C1=O,inconclusive: 13.7%
9,CC1=NN(C(N)=S)C(=O)C1N=Nc1c(C)n(C)n(-c2ccccc2)c1=O (stereo unspecified),inconclusive: -14.2%
10,Cc1ccccc1OCC(O)CN1CCN(c2ccc(Cl)cc2)CC1 (stereo unspecified),inconclusive: -2.4%
11,O=C(CCC(=O)OCc1ccc([N+](=O)[O-])cc1)Nc1ccc(F)cc1,inactive: -1%
12,Cc1c(C(=O)N(CCO)Cc2ccccc2)oc2c(F)cccc12,inconclusive: -41.7%
13,COC(=O)C1(C)NC(c2ccc(O)cc2)C2C(=O)N(c3ccc(F)cc3)C(=O)C21 (stereo unspecified),inconclusive: -3.5%
14,O=C(CSC1CN(C(c2ccccc2)c2ccccc2)C1)N/N=C/c1ccccc1,inconclusive: 44.1%
15,OCCN1CCN(c2cc(C(F)(F)F)nc3ccccc23)CC1,inconclusive: 51.7%
16,COc1cccc(C(=O)NCc2ccc3c(c2)OCO3)c1OC,inconclusive: -28.7%
17,CC(=O)Oc1cc(OC(C)=O)c2c(=O)c(-c3ccc4c(c3)OCCCO4)c(C)oc2c1,inconclusive: -60.3%
18,CCOC(=O)c1ccc(N2C(=O)[C@@H](c3ccccc3)[C@H]2c2ccccc2)cc1,inactive: 0.8%
19,O=C(c1cccs1)N1CCN(c2cc(Cl)ccc2Cl)CC1,inconclusive: -22.4%
20,CC(=O)Nc1c(-c2ccc(Cl)cc2)c(=O)c2ccccc2n1C,inconclusive: -0.7%
21,CC(=O)Nc1cc(S(=O)(=O)Nc2ccccc2)c(C)cc1C,inconclusive: -33.6%
22,CN(C)c1nc(NS(=O)(=O)c2ccc(Cl)cc2)nc(N(C)C)n1,inactive: -2.9%
23,Cc1ccc(Cl)cc1N(CC(=O)NCc1ccccc1)S(C)(=O)=O,inconclusive: -10%

row,SMILES,inhibition
1,CC(C)CCNC(=O)CSc1nc2ccsc2c(=O)n1NC(=O)c1ccccc1,inactive: 1.7%
2,Cc1noc(C)c1-c1ccc(C(=O)Nc2ccccc2)c2occc12,inactive: 1.5%
3,COc1ccc(N/N=C(\C#N)C(=N)N2CCCCC2)cc1,inconclusive: 73.8%
4,O=C(COC(=O)c1ccccc1)NCC1COc2ccccc2O1 (stereo unspecified),inactive: -4.4%
5,CCCc1cc(=O)[nH]c(SCC(N)=O)n1,inconclusive: 30.7%
6,COc1ccccc1C1CCN(c2cc(O)ccc2[N+](=O)[O-])CC1,inconclusive: -42.1%
7,CC1(C)CC(=O)C(N=Nc2ccc3ncsc3c2)=C(O)C1,inconclusive: 4.2%
8,O=C(c1ccc2c(c1)C(=O)N(Cc1ccco1)C2=O)N1CCOCC1,inactive: -5%
9,COc1cc(/C=N/NC(=O)CC23CC4CC(CC(C4)C2)C3)cc(Br)c1OCC(=O)N(C)C,inactive: -5.1%
10,CC(C)Oc1ccc(C2CC(=O)N(Nc3ccc([N+](=O)[O-])cc3[N+](=O)[O-])C2=O)cc1 (stereo unspecified),inconclusive: -6%
11,O=[N+]([O-])c1ccc(/C=N/n2c(-c3ccccc3)n[nH]c2=S)cc1,inconclusive: 26.5%
12,COc1ccc(C2=NOC(C(=O)Nc3ccc(C)cc3)C2)cc1OC (stereo unspecified),inactive: 3.2%
13,CCOC(=O)N1CCC(NC(=O)CCc2c(C)nc3ncnn3c2C)CC1,inactive: 0.7%
14,O=C(CSc1nc(Nc2ccccc2)nc(N2CCOCC2)n1)Nc1ccccc1Cl,inactive: -4.4%
15,Cn1cnc2ncnn2c1=S,inactive: -2.9%
16,COc1ccc(/C=C/C(=O)ONC2=NCCCCC2)cc1OC,inactive: -1.1%
17,CCCC1=NN2C(=N)/C(=C\c3cc(C)n(Cc4ccccc4)c3C)C(=O)N=C2S1,inconclusive: -20.1%
18,CC(=O)Cc1nsc(NC(=O)c2ccccc2Cl)n1,inactive: -9.5%
19,COC(=O)CNC(=O)CSc1ccccn1,inconclusive: 21.3%
20,COCCCNC(=O)/C(C#N)=C/c1c(N2CCN(c3cccc(Cl)c3)CC2)nc2c(C)cccn2c1=O,inconclusive: -23.2%
21,Cc1ccc(/C(O)=C2\C(=O)C(=O)N(C)C2c2ccc(Br)cc2)cc1 (stereo unspecified),inconclusive: -11.9%
22,Cc1cc(C)cc(NC(=O)Nc2cc(-c3ccccc3)nn2C)c1,inconclusive: -56.9%
23,Cc1nnc(NC(=O)c2cccc(Br)c2)s1,inconclusive: 10.4%

row,SMILES,inhibition
1,Cc1cccc(N=C2NC(=O)/C(=C/c3cccnc3)S2)c1C,inconclusive: -12%
2,CCc1ccc(C(=O)NNc2ccc(F)cc2F)cc1,inconclusive: 53.6%
3,CC(C)S(=O)(=O)C/C(N)=N/OC(=O)c1cc(Cl)cc(Cl)c1,inconclusive: -94.9%
4,CC(=O)OCCn1c2nc(=O)[nH]c(=O)c-2nc2cc(C)c(C)cc21,active: 42.4%
5,O=C1Nc2ccc(Br)cc2C12OCCO2,inconclusive: 39%
6,Cc1ccc(O)c(C2=Nc3ccccc3C2(C)C)c1,inactive: -11.1%
7,CC(C)OC(=O)N(C)C[C@@H]1OCc2cnnn2CCCC(=O)N([C@@H](C)CO)C[C@@H]1C,inactive: 1.5%
8,CCCCn1c(=NC(=O)c2ccc3c(c2)OCO3)c(C#N)cc2c(=O)n3cccc(C)c3nc21,active: 38.4%
9,C[N+](C)(C)CC(=O)N1CCN(c2ccc3ccccc3n2)CC1,inconclusive: -10.7%
10,Cc1cc(-c2ccccc2)nc(N(C)NC(=O)C(C)(C)C)c1S(C)(=O)=O,inactive: 0.6%
11,CSc1cccc(CN2CCC(CCC(=O)NC3CC3)CC2)c1,inconclusive: -7.7%
12,Cc1cc(S(=O)(=O)NCc2ccc(N3CCN(C)CC3)cc2)c(C)s1,inactive: 3.6%
13,COc1ccc(-n2c(-c3ccc(Cl)cc3)c[n+]3c2CCCCC3)cc1,inconclusive: -19.1%
14,COC(=O)CN(C)C(=O)c1ccccc1OC1CCN(S(C)(=O)=O)CC1,inconclusive: 34.5%
15,COc1ccc(NC(=O)c2cccc(NS(=O)(=O)c3ccccc3)c2)cc1,inconclusive: 4%
16,O=C(Nc1nc2ccccc2[nH]1)C12CC3CC(CC(C3)C1)C2,inactive: -19.7%
17,O=C(NCCN1CCN(c2ccccc2F)CC1)C1c2ccccc2C(=O)N2CCc3ccccc3C12 (stereo unspecified),inconclusive: 0.9%
18,CCCCC#Cc1ccc(C(=O)NNC(=O)Nc2cc(Cl)cc(Cl)c2)o1,inconclusive: 14.3%
19,Cc1cc(C)c(OCCCCN(C)Cc2ccccc2)c(C)c1,inconclusive: -0.5%
20,O=C(NCCc1ccccc1)c1nc2c(nnn2Cc2ccccc2Cl)c(=O)[nH]1,inactive: -3.5%
21,Cc1ccc(CNC(=O)C2CCCN2S(=O)(=O)c2ccc(F)cc2)cc1 (stereo unspecified),inconclusive: -24.3%
22,COCCOC(=O)C1=C(C)NC(=O)NC1c1cn(-c2ccccc2)nc1-c1cccs1 (stereo unspecified),inactive: 6.3%

# Sorted by SMILES length (smallest number first): some entries from above
row,SMILES,inhibition
5,O=C1Nc2ccc(Br)cc2C12OCCO2,inconclusive: 39%
19,Cc1cc(C)c(OCCCCN(C)Cc2ccccc2)c(C)c1,inconclusive: -0.5%
11,CSc1cccc(CN2CCC(CCC(=O)NC3CC3)CC2)c1,inconclusive: -7.7%
1,Cc1cccc(N=C2NC(=O)/C(=C/c3cccnc3)S2)c1C,inconclusive: -12%
4,CC(=O)OCCn1c2nc(=O)[nH]c(=O)c-2nc2cc(C)c(C)cc21,active: 42.4%
8,CCCCn1c(=NC(=O)c2ccc3c(c2)OCO3)c(C#N)cc2c(=O)n3cccc(C)c3nc21,active: 38.4%
